Some of the results follow.
What was measured:
Experiment in all cases: glycan array binding signal (z-score within array); higher = stronger binding
Conditions in all cases: glycan notation: IUPAC condensed, linker removed
[1] = molecular target: Neu5Ac(a2-6)Gal(b1-4)GlcNAc(b1-2)Man(a1-3)[Neu5Ac(a2-3)Gal(b1-4)GlcNAc(b1-2)Man(a1-6)]Man(b1-4)GlcNAc(b1-4)GlcNAc
Procedure, shortened: (§1)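 Glycan array binding is given as a within-array Z-score, which can be read as non-binding when negative. The arrays, 3228 of them, came from the Consortium for Functional Glycomics database and were retained only where the protein sequence was available. Z-scores were averaged across arrays of the same protein sequence at different concentrations or buffers and across linkers.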

[2] = molecular target: Neu5Ac(a2-6)Gal(b1-4)GlcNAc(b1-2)Man(a1-3)[Neu5Ac(a2-6)Gal(b1-4)GlcNAc(b1-2)Man(a1-6)]Man(b1-4)GlcNAc(b1-4)GlcNAc
Procedure, shortened: as §1

[3] = molecular target: Neu5Ac(a2-6)Gal(b1-4)GlcNAc(b1-2)Man(a1-3)[Neu5Ac(a2-6)Gal(b1-4)GlcNAc(b1-2)Man(a1-6)]Man(b1-4)GlcNAc(b1-4)[Fuc(a1-6)]GlcNAc
Procedure, shortened: as §1

[4] = molecular target: Neu5Ac(a2-6)Gal(b1-4)GlcNAc(b1-2)Man(a1-6)Man(b1-4)GlcNAc(b1-4)GlcNAc
Procedure, shortened: as §1

[5] = molecular target: Neu5Ac(a2-6)Gal(b1-4)GlcNAc(b1-2)Man(a1-6)[Gal(b1-4)GlcNAc(b1-2)Man(a1-3)]Man(b1-4)GlcNAc(b1-4)GlcNAc
Procedure, shortened: as §1

[6] = molecular target: Neu5Ac(a2-6)Gal(b1-4)GlcNAc(b1-2)Man(a1-6)[GlcNAc(b1-2)Man(a1-3)]Man(b1-4)GlcNAc(b1-4)GlcNAc
Procedure, shortened: as §1

[7] = molecular target: Neu5Ac(a2-6)Gal(b1-4)GlcNAc(b1-2)Man(a1-6)[Man(a1-3)]Man(b1-4)GlcNAc(b1-4)GlcNAc
Procedure, shortened: as §1

[8] = molecular target: Neu5Ac(a2-6)Gal(b1-4)GlcNAc(b1-2)[Neu5Ac(a2-6)Gal(b1-4)GlcNAc(b1-4)]Man(a1-3)[GlcNAc(b1-4)][Neu5Ac(a2-6)Gal(b1-4)GlcNAc(b1-2)[Neu5Ac(a2-6)Gal(b1-4)GlcNAc(b1-6)]Man(a1-6)]Man(b1-4)GlcNAc(b1-4)GlcNAc
Procedure, shortened: as §1

[9] = molecular target: Neu5Ac(a2-6)Gal(b1-4)GlcNAc(b1-2)[Neu5Ac(a2-6)Gal(b1-4)GlcNAc(b1-4)]Man(a1-3)[GlcNAc(b1-4)][Neu5Ac(a2-6)Gal(b1-4)GlcNAc(b1-4)Man(a1-6)]Man(b1-4)GlcNAc(b1-4)GlcNAc
Procedure, shortened: as §1

[10] = molecular target: Neu5Ac(a2-6)Gal(b1-4)GlcNAc(b1-2)[Neu5Ac(a2-6)Gal(b1-4)GlcNAc(b1-6)]Man(a1-6)[Neu5Ac(a2-6)Gal(b1-4)GlcNAc(b1-2)Man(a1-3)][GlcNAc(b1-4)]Man(b1-4)GlcNAc(b1-4)GlcNAc
Procedure, shortened: as §1

[11] = molecular target: Neu5Ac(a2-6)Gal(b1-4)GlcNAc(b1-3)Gal(b1-3)GlcNAc
Procedure, shortened: as §1

[12] = molecular target: Neu5Ac(a2-6)Gal(b1-4)GlcNAc(b1-3)Gal(b1-4)GlcNAc
Procedure, shortened: as §1

[13] = molecular target: Neu5Ac(a2-6)Gal(b1-4)GlcNAc(b1-3)Gal(b1-4)GlcNAc(b1-2)Man(a1-3)[Neu5Ac(a2-6)Gal(b1-4)GlcNAc(b1-3)Gal(b1-4)GlcNAc(b1-2)Man(a1-6)]GalNAc
Procedure, shortened: as §1

[14] = molecular target: Neu5Ac(a2-6)Gal(b1-4)GlcNAc(b1-3)Gal(b1-4)GlcNAc(b1-3)Gal(b1-4)GlcNAc
Procedure, shortened: as §1

[15] = molecular target: Neu5Ac(a2-6)Gal(b1-4)GlcNAc(b1-3)Gal(b1-4)GlcNAc(b1-3)Gal(b1-4)GlcNAc(b1-2)Man(a1-3)[Neu5Ac(a2-6)Gal(b1-4)GlcNAc(b1-3)Gal(b1-4)GlcNAc(b1-3)Gal(b1-4)GlcNAc(b1-2)Man(a1-6)]GalNAc
Procedure, shortened: as §1

[16] = molecular target: Neu5Ac(a2-6)Gal(b1-4)GlcNAc(b1-3)Gal(b1-4)GlcNAc(b1-3)GalNAc
Procedure, shortened: as §1

[17] = molecular target: Neu5Ac(a2-6)Gal(b1-4)GlcNAc(b1-3)Gal(b1-4)GlcNAc(b1-3)[Neu5Ac(a2-6)Gal(b1-4)GlcNAc(b1-3)Gal(b1-4)GlcNAc(b1-6)]GalNAc
Procedure, shortened: as §1

[18] = molecular target: Neu5Ac(a2-6)Gal(b1-4)GlcNAc(b1-3)Gal(b1-4)GlcNAc(b1-6)[Gal(b1-3)]GalNAc
Procedure, shortened: as §1

[19] = molecular target: Neu5Ac(a2-6)Gal(b1-4)GlcNAc(b1-3)Gal(b1-4)[Fuc(a1-3)]GlcNAc(b1-3)Gal(b1-4)[Fuc(a1-3)]GlcNAc
Procedure, shortened: as §1

[20] = molecular target: Neu5Ac(a2-6)Gal(b1-4)GlcNAc(b1-3)GalNAc
Procedure, shortened: as §1

[21] = molecular target: Neu5Ac(a2-6)Gal(b1-4)GlcNAc(b1-3)[Neu5Ac(a2-6)Gal(b1-4)GlcNAc(b1-6)]GalNAc
Procedure, shortened: as §1

[22] = molecular target: Neu5Ac(a2-6)Gal(b1-4)GlcNAc(b1-6)GalNAc
Procedure, shortened: as §1

[23] = molecular target: Neu5Ac(a2-6)Gal(b1-4)GlcNAc(b1-6)[Gal(b1-3)GlcNAc(b1-3)]Gal(b1-4)Glc
Procedure, shortened: as §1

[24] = molecular target: Neu5Ac(a2-6)Gal(b1-4)GlcNAc(b1-6)[Gal(b1-3)]GalNAc
Procedure, shortened: as §1

[25] = molecular target: Neu5Ac(a2-6)Gal(b1-4)GlcNAc6S
Procedure, shortened: as §1

Neu5Ac(a2-6)GalNAc = molecular target: Neu5Ac(a2-6)GalNAc
Procedure, shortened: as §1

[26] = molecular target: Neu5Ac(a2-6)GalNAc(b1-4)GlcNAc
Procedure, shortened: as §1

[27] = molecular target: Neu5Ac(a2-6)GalNAc(b1-4)GlcNAc6S
Procedure, shortened: as §1

[28] = molecular target: Neu5Ac(a2-6)GlcNAc(b1-4)GlcNAc
Procedure, shortened: as §1

[29] = molecular target: Neu5Ac(a2-6)GlcNAc(b1-4)GlcNAc(b1-4)GlcNAc
Procedure, shortened: as §1

B1: Mermaid1 (Stilbonema majum) (protein)
chain: MGSSHHHHHHSSGLVPRGSHMAASGWLRSPQGTVVKLYRRSLSWSKADEFCKDVDGRLVVDRTADMHLFLIKNVLKEKKSRVWVGLRRTAPHSRTWIWSDGTRQNEDDLDANLWLRDEPNDAAGEEECALFMYSPWEKAWGLNDYLCRGGCRSYQFICEKWIR
Question: Which results are given for B1?
Answer: glycan array binding signal (z-score) [1]: -0.455; glycan array binding signal (z-score) [2]: -0.383; glycan array binding signal (z-score) [3]: -0.708; glycan array binding signal (z-score) [4]: -0.437; glycan array binding signal (z-score) [5]: -0.858; glycan array binding signal (z-score) [6]: -0.629; glycan array binding signal (z-score) [7]: -0.575; glycan array binding signal (z-score) [8]: 0.087; glycan array binding signal (z-score) [9]: -0.884; glycan array binding signal (z-score) [10]: -0.834; glycan array binding signal (z-score) [11]: -0.602; glycan array binding signal (z-score) [12]: -0.751; glycan array binding signal (z-score) [13]: 0.846; glycan array binding signal (z-score) [14]: -0.271; glycan array binding signal (z-score) [15]: 0.874; glycan array binding signal (z-score) [16]: -0.679; glycan array binding signal (z-score) [17]: -0.258; glycan array binding signal (z-score) [18]: -0.26; glycan array binding signal (z-score) [19]: -0.822; glycan array binding signal (z-score) [20]: -0.593; glycan array binding signal (z-score) [21]: -0.347; glycan array binding signal (z-score) [22]: 1.02; glycan array binding signal (z-score) [23]: -0.37; glycan array binding signal (z-score) [24]: -0.523; glycan array binding signal (z-score) [25]: -0.695; glycan array binding signal (z-score) (Neu5Ac(a2-6)GalNAc): -0.767; glycan array binding signal (z-score) [26]: -0.985; glycan array binding signal (z-score) [27]: -0.328; glycan array binding signal (z-score) [28]: -0.278; glycan array binding signal (z-score) [29]: -0.029

— the supplement of paper PMC8728848
